Reference: the supplement of paper PMC3334620
In all, about 33,000 sequences were measured (“E-score (-0.5 to 0.5)”: median about -0.0034, highest 2% from about 0.25 on). This is one part of the list.

target: T1, Yap3 (UniProt P38749); test: PBM E-score (8-mer binding enrichment) (E-score (-0.5 to 0.5)); higher = stronger / more preferred TF binding; settings: protein concentration: 100 nM; construct: GST-full length
T1 sequence: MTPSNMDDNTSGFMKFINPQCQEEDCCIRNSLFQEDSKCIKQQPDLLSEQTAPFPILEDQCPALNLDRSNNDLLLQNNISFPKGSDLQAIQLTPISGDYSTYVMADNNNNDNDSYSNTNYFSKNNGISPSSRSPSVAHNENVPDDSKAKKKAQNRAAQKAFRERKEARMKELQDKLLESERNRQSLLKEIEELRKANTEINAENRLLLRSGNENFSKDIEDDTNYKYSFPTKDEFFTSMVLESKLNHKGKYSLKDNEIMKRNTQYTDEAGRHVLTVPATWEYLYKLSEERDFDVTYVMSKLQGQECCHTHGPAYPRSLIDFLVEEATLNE
Method in brief: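 PURExpress in vitro transcription/translation supplied GST-tagged yeast transcription factors, either full-length or DNA-binding domain. Applied at about 100-200 nM to universal all-10-mer Agilent arrays double-stranded by primer extension, the bound protein was detected with fluorescent anti-GST. E-scores, modified Wilcoxon-Mann-Whitney statistics, were given by the Universal PBM Analysis Suite to ungapped eight-base words pooled with their reverse complements after masliner normalisation.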

Row | Sequence | PBM E-score
1 | GGCTATTA | 0.089
2 | AGGTGAGA | 0.0969
3 | AAATACTG | 0.109
4 | ACTGCGCG | 0.0476
5 | AGGGAAGA | -0.109
6 | AGCCGTCG | 0.0233
7 | CATACGGG | -0.177
8 | CAAGTATA | -0.0229
9 | CACGGAGG | -0.0561
10 | CTCACTGC | -0.153
11 | AGGAAAAC | -0.0628
12 | ATGGCAGC | -0.042
13 | ATGGATAA | 0.131
14 | CATGTAGG | -0.0745
15 | AGGGAATC | 0.0631
16 | ATAACGAT | 0.109
17 | GACTATTA | 0.0619
18 | TTTAAAAA | 0.0194
19 | GATGAACC | -0.0269
20 | ATAGTCCG | -0.00665
21 | GATGGGCC | -0.31
22 | CGAACAAC | 0.253
23 | ATAATACA | 0.357
24 | CGTCAGCC | -0.0455
25 | AGTCATAG | 0.0107

Row | Sequence | PBM E-score
26 | TGAACACA | -0.0712
27 | GATGGCTA | 0.0169
28 | TAAGAGAA | 0.0173
29 | AGGCTAGC | -0.0851
30 | AGTTCTAG | -0.101
31 | CCCTTTCG | -0.0948
32 | AACTTCAC | 0.114
33 | AAAGACAC | 0.0953
34 | ATACTACC | 0.0377
35 | AACTGGGG | -0.0749
36 | CAGCCAAG | -0.111
37 | ATGTAACG | 0.164
38 | AGAACTTA | 0.0979
39 | AATTCCCA | 0.115
40 | GTTAGAGA | -0.183
41 | CTCTACTC | 0.0355
42 | AAACTAGA | -0.036
43 | AGACCATG | -0.238
44 | CTTTCGAA | -0.0968
45 | ATAGGTAC | 0.0413
46 | ACCTAGGG | -0.0254
47 | AGATGGTA | 0.133
48 | CACGGGTA | -0.0576
49 | CAAGGGAC | -0.0565
50 | AAACGTAA | 0.24

Row | Sequence | PBM E-score
51 | ATATCACA | 0.0519
52 | ACCCTTAG | -0.161
53 | ATCGTTCC | -0.0403
54 | TATTCAGA | 0.11
55 | AGCGTCTG | -0.159
56 | GCGGGACA | -0.117
57 | AGTTACAT | 0.0747
58 | CGTGGCGC | -0.221
59 | CTGCTAAA | 0.0134
60 | AAAGGATG | 0.092
61 | AAAAAGCA | 0.127
62 | GAGTTCAC | -0.0826
63 | TACCAATA | 0.132
64 | TCACTACA | 0.127
65 | CCCCCTAA | -0.291
66 | AAAGTCAC | 0.117
67 | CCACATAG | 0.0179
68 | AAACGAAT | 0.18
69 | AGAACGAC | 0.0859
70 | CTTAGCGC | 0.171
71 | CAGTAAGG | -0.0314
72 | TCGGATCA | 0.0489
73 | CTCCTGAC | 0.00138
74 | CGCTCGAC | -0.146
75 | CAGGTATG | 0.13

Row | Sequence | PBM E-score
76 | AGTATTGG | 0.00423
77 | ACCGTGCT | -0.295
78 | GGACCGCC | -0.348
79 | GTCGGTCA | -0.0651
80 | CACGAGAC | -0.0708
81 | CCGAACTA | 0.0209
82 | ATTCAGAG | 0.0415
83 | CGTATCAG | 0.00689
84 | AGAATCGA | 0.0567
85 | ACGCCTAG | -0.0426
86 | AAACGGTT | -0.141
87 | CGGGTCAC | -0.134
88 | AAAGTCCG | -0.0247
89 | AACTTGGT | 0.117
90 | ACCTCCAT | -0.182
91 | CCCGTTCG | -0.0649
92 | AGACTGAA | -0.0205
93 | TAACGTAA | 0.242
94 | ATCCAGCC | -0.144
95 | CTTATGTA | 0.216
96 | ACACGCGA | 0.0551
97 | CCCGGACA | -0.0536
98 | TAGATTCA | -0.175
99 | GTGCCGTA | 0.033
100 | GGTACGCA | 0.0349

Row | Sequence | PBM E-score
101 | CAACTAGC | 0.14
102 | GTGCGTCA | -0.0417
103 | CTTTTAAC | 0.0122
104 | CGGACAGA | -0.0317
105 | CCTATTAA | 0.0368
106 | AATATGAC | 0.223
107 | AGCCAATG | -0.0551
108 | ACCGTTAG | 0.0694
109 | CTCTCAGA | -0.117
110 | ACTCGTGG | -0.0605
111 | CAGATAAC | 0.0953
112 | AATTATTG | 0.195
113 | GAGGAGGA | -0.253
114 | CCCTGCCG | -0.28
115 | GTGTCGTA | 0.111
116 | ACCGGTAA | -0.0317
117 | GTGAGAAA | 0.0709
118 | CCGCCAAC | -0.142
119 | CCACGGGG | -0.418
120 | AAACAACC | 0.078
121 | GTTAGAAA | 0.0327
122 | AAAGAGTT | 0.0207
123 | GCCGTACA | 0.0668
124 | CCCGCATA | 0.168
125 | CTTAAGCA | -0.0399

Row | Sequence | PBM E-score
126 | ATTTCTGC | 0.231
127 | AGAGAGGA | -0.261
128 | CACCGCTC | -0.0925
129 | CAGTAGTC | -0.245
130 | GTCGAACA | 0.0887
131 | ACTTTGAA | 0.0353
132 | ACTTAGCG | 0.161
133 | AGGCAAAC | -0.027
134 | ATCACCAC | 0.138
135 | ATAAGGGC | 0.112
136 | GGAGTGAC | -0.0383
137 | CAGAGAGG | -0.208
138 | CCTTCTCG | -0.134
139 | GTGCACGA | 0.0909
140 | ATGATATG | 0.253
141 | ACACAGTA | -0.0354
142 | ATTTGACC | 0.0587
143 | ACCATGAC | 0.147
144 | AAGTCTAG | -0.231
145 | GCGGAAAA | 0.245
146 | GCACCTGA | -0.0023
147 | GCAAGGAC | -0.15
148 | AAGACAAC | 0.267
149 | AGATGAGA | -0.021
150 | AATCTAAA | 0.101

Row | Sequence | PBM E-score
151 | CTGATATC | 0.0122
152 | AACGATGG | 0.0615
153 | ACAGAACT | 0.0358
154 | ACCCTGAT | -0.119
155 | AGGAGTCC | -0.276
156 | ATGGGTGC | -0.0138
157 | CTTCGTGA | 0.034
158 | CAACCGAC | 0.185
159 | CTGCACAA | 0.00617
160 | AGCACACA | -0.0965
161 | AGGATCTC | -0.103
162 | AAACACTC | 0.0568
163 | CTGTTCCA | -0.0015
164 | AAGCAGGC | -0.251
165 | TCTGCACA | -0.00606
166 | GACTGTTA | -0.00308
167 | CCGAGTTA | -0.0387
168 | ATCATCCG | -0.162
169 | TCGGCACA | -0.0859
170 | ACCCGGCT | -0.186
171 | GACGGCCC | -0.253
172 | CCTGCGCG | -0.0131
173 | CCGCCTCA | -0.248
174 | AGAAGGGG | -0.259
175 | CATCCTTA | -0.00117

Some of the entries so far, in markdown.

| Row | Sequence | PBM E-score |
| --- | --- | --- |
| 116 | ACCGGTAA | -0.0317 |
| 117 | GTGAGAAA | 0.0709 |
| 118 | CCGCCAAC | -0.142 |
| 119 | CCACGGGG | -0.418 |
| 120 | AAACAACC | 0.078 |
| 121 | GTTAGAAA | 0.0327 |
| 122 | AAAGAGTT | 0.0207 |
| 123 | GCCGTACA | 0.0668 |
| 124 | CCCGCATA | 0.168 |
| 125 | CTTAAGCA | -0.0399 |
| 126 | ATTTCTGC | 0.231 |
| 127 | AGAGAGGA | -0.261 |
| 128 | CACCGCTC | -0.0925 |
| 129 | CAGTAGTC | -0.245 |
| 130 | GTCGAACA | 0.0887 |
| 131 | ACTTTGAA | 0.0353 |
| 132 | ACTTAGCG | 0.161 |
| 133 | AGGCAAAC | -0.027 |
| 134 | ATCACCAC | 0.138 |
| 135 | ATAAGGGC | 0.112 |
| 136 | GGAGTGAC | -0.0383 |
| 137 | CAGAGAGG | -0.208 |
| 138 | CCTTCTCG | -0.134 |
| 139 | GTGCACGA | 0.0909 |
| 140 | ATGATATG | 0.253 |
| 141 | ACACAGTA | -0.0354 |
| 142 | ATTTGACC | 0.0587 |
| 143 | ACCATGAC | 0.147 |
| 144 | AAGTCTAG | -0.231 |
| 145 | GCGGAAAA | 0.245 |
| 146 | GCACCTGA | -0.0023 |
| 147 | GCAAGGAC | -0.15 |
| 148 | AAGACAAC | 0.267 |
| 149 | AGATGAGA | -0.021 |
| 150 | AATCTAAA | 0.101 |
| 151 | CTGATATC | 0.0122 |
| 152 | AACGATGG | 0.0615 |
| 153 | ACAGAACT | 0.0358 |
| 154 | ACCCTGAT | -0.119 |
| 155 | AGGAGTCC | -0.276 |
| 156 | ATGGGTGC | -0.0138 |
| 157 | CTTCGTGA | 0.034 |
| 158 | CAACCGAC | 0.185 |
| 159 | CTGCACAA | 0.00617 |
| 160 | AGCACACA | -0.0965 |
| 161 | AGGATCTC | -0.103 |
| 162 | AAACACTC | 0.0568 |
| 163 | CTGTTCCA | -0.0015 |
| 164 | AAGCAGGC | -0.251 |
| 165 | TCTGCACA | -0.00606 |
| 166 | GACTGTTA | -0.00308 |
| 167 | CCGAGTTA | -0.0387 |
| 168 | ATCATCCG | -0.162 |
| 169 | TCGGCACA | -0.0859 |
| 170 | ACCCGGCT | -0.186 |
| 171 | GACGGCCC | -0.253 |

(next part)

Row | Sequence | PBM E-score
176 | GAAATCTC | -0.052
177 | GGCCGTCA | -0.164
178 | ATTGACTA | 0.0294
179 | CCAGGGAG | -0.292
180 | CTCTTGGA | -0.0892
181 | GTCTCCCA | -0.175
182 | ATTTGATG | 0.106
183 | CCACCATA | -0.033
184 | ACGCTCTG | -0.186
185 | ACATTCAC | 0.147
186 | CGAAGATA | 0.194
187 | ACGTTAAC | 0.109
188 | ACGTCGGA | -0.085
189 | ACAGCTGA | -0.116
190 | AGAATTAT | 0.197
191 | ACCAACCC | -0.124
192 | CGCGCCGC | -0.0149
193 | CATGGACG | -0.0677
194 | CTGTGCCA | -0.119
195 | CGCTCCCG | -0.104
196 | GGAGCTGA | -0.203
197 | AGTCGGGC | -0.0272
198 | ACTGCTCC | -0.0513
199 | AAGTCACC | -0.032
200 | CTAAGCTA | 0.0576

Row | Sequence | PBM E-score
201 | AACGCGTG | 0.019
202 | CTTAAAAA | 0.0828
203 | AGGTTCAG | -0.0303
204 | CTTCCTCC | -0.358
205 | GATGGTCA | -0.144
206 | CCGAACGC | 0.0206
207 | ACACGAGG | -0.0923
208 | AAATCAGG | -0.00912
209 | CCAGAGGA | -0.18
210 | AAGGGTAA | -0.0358
211 | GAATGGAA | 0.131
212 | GGATCGGA | -0.033
213 | CCTCCGAG | -0.174
214 | TGCAAGAA | 0.157
215 | CTTAGATC | -0.0222
216 | CTGAACAA | 0.172
217 | CGAAATCG | 0.125
218 | CCTGATGC | -0.00412
219 | AACCCATT | 0.16
